Positions count from the first letter of the chain named. Results are given in words; binding and its absence hold for the method and conditions named. Some entries that bind do so weakly or less than the wild type. For some of these results: Sequences can lack the tags named with a protein.
T1: ScOrc1 K362A (Orc1 subunit of ORC-1^K362A) (S. cerevisiae) (UniProt P54784)
T1 sequence: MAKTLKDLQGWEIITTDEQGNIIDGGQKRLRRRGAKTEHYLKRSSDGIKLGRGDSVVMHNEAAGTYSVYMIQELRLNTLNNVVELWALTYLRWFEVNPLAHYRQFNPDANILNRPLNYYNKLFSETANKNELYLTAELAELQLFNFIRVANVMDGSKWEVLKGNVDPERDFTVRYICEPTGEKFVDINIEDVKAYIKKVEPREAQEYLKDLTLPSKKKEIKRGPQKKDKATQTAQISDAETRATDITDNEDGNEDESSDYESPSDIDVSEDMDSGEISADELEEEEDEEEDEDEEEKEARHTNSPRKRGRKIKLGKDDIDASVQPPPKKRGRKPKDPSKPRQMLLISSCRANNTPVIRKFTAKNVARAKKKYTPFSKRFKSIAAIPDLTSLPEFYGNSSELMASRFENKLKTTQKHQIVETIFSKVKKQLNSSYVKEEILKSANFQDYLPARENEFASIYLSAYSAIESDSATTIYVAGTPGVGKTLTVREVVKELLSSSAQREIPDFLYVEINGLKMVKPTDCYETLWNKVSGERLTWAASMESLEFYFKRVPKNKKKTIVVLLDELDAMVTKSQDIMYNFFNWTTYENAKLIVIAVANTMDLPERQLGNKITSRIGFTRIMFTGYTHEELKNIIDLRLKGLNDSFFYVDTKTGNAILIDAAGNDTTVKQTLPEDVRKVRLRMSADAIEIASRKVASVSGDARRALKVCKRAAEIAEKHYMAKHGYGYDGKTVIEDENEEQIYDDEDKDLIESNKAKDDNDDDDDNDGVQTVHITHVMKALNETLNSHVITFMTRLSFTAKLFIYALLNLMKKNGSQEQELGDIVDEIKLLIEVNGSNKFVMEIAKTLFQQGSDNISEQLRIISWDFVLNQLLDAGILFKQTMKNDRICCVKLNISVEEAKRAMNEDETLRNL

T2: ScOrc1 R367A (Orc1 subunit of ORC-1^R367A) (S. cerevisiae) (UniProt P54784)
T2 sequence: T1 sequence with A362K, R367A

T3: ScOrc1-TEV-His (S. cerevisiae) (UniProt P54784)
T3 sequence: T1 sequence with A362K

B1: ScOrc5 (protein, UniProt P50874 1-479)
chain: MNVTTPEVAFREYQTNCLASYISADPDITPSNLILQGYSGTGKTYTLKKYFNANPNLHAVWLEPVELVSWKPLLQAIARTVQYKLKTLYPNIPTTDYDPLQVEEPFLLVKTLHNIFVQYESLQEKTCLFLILDGFDSLQDLDAALFNKYIKLNELLPKDSKINIKFIYTMLETSFLQRYSTHCIPTVMFPRYNVDEVSTILVMSRCGELMEDSCLRKRIIEEQITDCTDDQFQNVAANFIHLIVQAFHSYTGNDIFALNDLIDFKWPKYVSRITKENIFEPLALYKSAIKLFLSTDDNLSENGQGESAITTNRDDLENSQTYDLSIISKYLLIASYICSYLEPRYDASIFSRKTRIIQGRAAYGRRKKKEVNPRYLQPSLFAIERLLAIFQAIFPIQGKAESGSLSALREESLMKANIEVFQNLSELHTLKLIATTMNKNIDYLSPKVRWKVNVPWEIIKEISESVHFNISDYFSDIHE
B2: ScOrc6 (protein, UniProt P38826 1-435)
chain: MSMQQVQHCVAEVLRLDPQEKPDWSSGYLKKLTNATSILYNTSLNKVMLKQDEEVARCHICAYIASQKMNEKHMPDLCYYIDSIPLEPKKAKHLMNLFRQSLSNSSPMKQFAWTPSPKKNKRSPVKNGGRFTSSDPKELRNQLFGTPTKVRKSQNNDSFVIPELPPMQTNESPSITRRKLAFEEDEDEDEEEPGNDGLSLKSHSNKSITGTRNVDSDEYENHESDPTSEEEPLGVQESRSGRTKQNKAVGKPQSELKTAKALRKRGRIPNSLLVKKYCKMTTEEIIRLCNDFELPREVAYKIVDEYNINASRLVCPWQLVCGLVLNCTFIVFNERRRKDPRIDHFIVSKMCSLMLTSKVDDVIECVKLVKELIIGEKWFRDLQIRYDDFDGIRYDEIIFRKLGSMLQTTNILVTDDQYNIWKKRIEMDLALTEPL
B3: ScOrc2 (protein, UniProt P32833 1-620)
chain: MLNGEDFVEHNDILSSPAKSRNVTPKRVDPHGERQLRRIHSSKKNLLERISLVGNERKNTSPDPALKPKTPSKAPRKRGRPRKIQEELTDRIKKDEKDTISSKKKRKLDKDTSGNVNEESKTSNNKQVMEKTGIKEKREREKIQVATTTYEDNVTPQTDDNFVSNSPEPPEPATPSKKSLTTNHDFTSPLKQIIMNNLKEYKDSTSPGKLTLSRNFTPTPVPKNKKLYQTSETKSASSFLDTFEGYFDQRKIVRTNAKSRHTMSMAPDVTREEFSLVSNFFNENFQKRPRQKLFEIQKKMFPQYWFELTQGFSLLFYGVGSKRNFLEEFAIDYLSPKIAYSQLAYENELQQNKPVNSIPCLILNGYNPSCNYRDVFKEITDLLVPAELTRSETKYWGNHVILQIQKMIDFYKNQPLDIKLILVVHNLDGPSIRKNTFQTMLSFLSVIRQIAIVASTDHIYAPLLWDNMKAQNYNFVFHDISNFEPSTVESTFQDVMKMGKSDTSSGAEGAKYVLQSLTVNSKKMYKLLIETQMQNMGNLSANTGPKRGTQRTGVELKLFNHLCAADFIASNEIALRSMLREFIEHKMANITKNNSGMEIIWVPYTYAELEKLLKTVLNTL
B4: ScOrc3 (protein, UniProt P54790 1-616)
chain: MSDLNQSKKMNVSEFADAQRSHYTVYPSLPQSNKNDKHIPFVKLLSGKESEVNVEKRWELYHQLHSHFHDQVDHIIDNIEADLKAEISDLLYSETTQKRRCFNTIFLLGSDSTTKIELKDESSRYNVLIELTPKESPNVRMMLRRSMYKLYSAADAEEHPTIKYEDINDEDGDFTEQNNDVSYDLSLVENFKRLFGKDLAMVFNFKDVDSINFNTLDNFIILLKSAFKYDHVKISLIFNINTNLSNIEKNLRQSTIRLLKRNYHKLDVSSNKGFKYGNQIFQSFLDTVDGKLNLSDRFVEFILSKMANNTNHNLQLLTKMLDYSLMSYFFQNAFSVFIDPVNVDFLNDDYLKILSRCPTFMFFVEGLIKQHAPADEILSLLTNKNRGLEEFFVEFLVRENPINGHAKFVARFLEEELNITNFNLIELYHNLLIGKLDSYLDRWSACKEYKDRLHFEPIDTIFQELFTLDNRSGLLTQSIFPSYKSNIEDNLLSWEQVLPSLDKENYDTLSGDLDKIMAPVLGQLFKLYREANMTINIYDFYIAFRETLPKEEILNFIRKDPSNTKLLELAETPDAFDKVALILFMQAIFAFENMGLIKFQSTKSYDLVEKCVWRGI
B5: ScOrc4 (protein, UniProt P54791 1-529)
chain: MTISEARLSPQVNLLPIKRHSNEEVEETAAILKKRTIDNEKCKDSDPGFGSLQRRLLQQLYGTLPTDEKIIFTYLQDCQQEIDRIIKQSIIQKESHSVILVGPRQSYKTYLLDYELSLLQQSYKEQFITIRLNGFIHSEQTAINGIATQLEQQLQKIHGSEEKIDDTSLETISSGSLTEVFEKILLLLDSTTKTRNEDSGEVDRESITKITVVFIFDEIDTFAGPVRQTLLYNLFDMVEHSRVPVCIFGCTTKLNILEYLEKRVKSRFSQRVIYMPQIQNLDDMVDAVRNLLTVRSEISPWVSQWNETLEKELSDPRSNLNRHIRMNFETFRSLPTLKNSIIPLVATSKNFGSLCTAIKSCSFLDIYNKNQLSNNLTGRLQSLSDLELAILISAARVALRAKDGSFNFNLAYAEYEKMIKAINSRIPTVAPTTNVGTGQSTFSIDNTIKLWLKKDVKNVWENLVQLDFFTEKSAVGLRDNATAAFYASNYQFQGTMIPFDLRSYQMQIILQELRRIIPKSNMYYSWTQL

Key:
Assay in all cases: co-purification (affinity column, then gel filtration); Orc1-TEV-His co-overexpressed with Orc2/3/4/5/6 in 293T cells; affinity-purified, fractionated on Superdex 200; fractions on 9% SDS-PAGE, Coomassie staining
[1] = biological target: T1, ScOrc1 K362A (Orc1 subunit of ORC-1^K362A) (S. cerevisiae)
[2] = biological target: T2, ScOrc1 R367A (Orc1 subunit of ORC-1^R367A) (S. cerevisiae)
[3] = biological target: T3, ScOrc1-TEV-His (S. cerevisiae)

| Binder | binding [1] | binding [2] | binding [3] |
| --- | --- | --- | --- |
| B1 | binds | binds | binds |
| B2 | binds | binds |  |
| B3 | binds | binds |  |
| B4 | binds | binds | binds |
| B5 | binds | binds | binds |

Reference: PMC4601075, “Specific binding of eukaryotic ORC to DNA replication origins depends on highly conserved basic residues” (Scientific Reports, 2015)
